Where a name gives a salt, the structure may show the parent alone. This is one part of the list. Repeats are few or missing, and single values can be far off.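 The strains were three CDC resistance-bank clinical C. auris isolates from clades III, IV and I, cultured in RPMI-1640 at 35°C. Growth was background-corrected OD600 versus vehicle-only wells on the same plate. A hit needed >50% inhibition in two or more strains plus a plate-corrected B-score exceeding 0.1.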
How the values were obtained:
Test in all cases: growth relative to vehicle control (OD600 ratio) (fraction); higher = less inhibition
Details in all cases: 24 h
[1] = system: C. auris AR-384
[2] = system: C. auris AR-386
[3] = system: C. auris AR-387

Structure (SMILES)	growth ([1]; 1 µM)	growth ([1]; 10 µM)	growth ([2]; 1 µM)	growth ([2]; 10 µM)	growth ([3]; 1 µM)	growth ([3]; 10 µM)
CNCCC(Oc1ccc(C(F)(F)F)cc1)c1ccccc1 (stereo not given) [Fluoxetine HCl]	1	1.05	0.85	0.46	0.7	0.74
Oc1c(I)cc(I)c2cccnc12 [Diiodohydroxyquinoline]	1.03	0.78	0.64	0.61	0.75	1.19
C[C@H](NC(=O)[C@@H](Cc1ccc2ccccc2c1)NC(=O)[C@@H](C)N)C(=O)N[C@@H](Cc1c[nH]c2ccccc12)C(=O)N[C@H](Cc1ccccc1)C(=O)N[C@@H](CCCCN)C(N)=O	0.58	0.36	0.78	0.83	0.67	0.61
Nc1ncn([C@@H]2O[C@H](CO)[C@@H](O)[C@H]2O)c(=O)n1 [Azacitidine]	0.95	0.8	0.65	0.75	0.76	0.96
Clc1cccc(Cl)c1NC1=NCCN1 [Clonidine HCl]	0.99	1.38	1.04	1.25	0.96	0.93
N=C(N)N [Guanidine HCl]	0.79	0.76	1	0.99	0.94	0.96
Cc1c(C(N)=O)cc([N+](=O)[O-])cc1[N+](=O)[O-] [Dinitolmide]	0.94	0.97	0.79	0.9	0.7	1.13
CCCC(CCC)C(=O)O [Divalproex Sodium]	1.07	1.18	1.05	0.56	0.71	0.85
CCOc1nc2cccc(C(=O)OC(C)OC(=O)OC3CCCCC3)c2n1Cc1ccc(-c2ccccc2-c2nn[nH]n2)cc1 (stereo not given) [Candesartan Cilexetil]	1.14	1.4	0.92	1.25	1.39	1.45
Cc1c(C)c2c(c(C)c1O)CC[C@@](C)(CCC[C@H](C)CCC[C@H](C)CCCC(C)C)O2 [Vitamin E]	1.25	0.92	0.9	0.77	0.78	0.77
Cc1ccsc1C(=CCCN1CCC[C@@H](C(=O)O)C1)c1sccc1C [Tiagabine]	0.79	1.08	0.94	0.87	1	1.16
CC(C)CCCCC(=O)N[C@@H](CCN)C(=O)N[C@H](C(=O)N[C@@H](CCN)C(=O)N[C@H]1CCNC(=O)[C@H]([C@@H](C)O)NC(=O)[C@H](CCN)NC(=O)[C@H](CCN)NC(=O)[C@H](CC(C)C)NC(=O)[C@@H](Cc2ccccc2)NC(=O)[C@H](CCN)NC1=O)[C@@H](C)O [Polymyxin B sulphate]	0.69	0.76	0.96	0.92	0.68	0.74
CC[C@H]1[C@@H](O)[C@@H]2[C@H](CC[C@]3(C)[C@@H]([C@H](C)CCC(=O)O)CC[C@@H]23)[C@@]2(C)CC[C@@H](O)C[C@@H]12 [Obeticholic Acid]	0.8	0.73	0.73	1.06	0.72	1.07
CN(C)c1ccc(O)c2c1C[C@H]1C[C@H]3[C@H](N(C)C)C(O)=C(C(N)=O)C(=O)[C@@]3(O)C(O)=C1C2=O [Minocycline HCl]	0.73	1.26	0.92	1.12	0.69	0.99
CC1(C)[C@@H](O[C@H]2O[C@H](C(=O)O)[C@@H](O)[C@H](O)[C@H]2O[C@@H]2O[C@H](C(=O)O)[C@@H](O)[C@H](O)[C@H]2O)CC[C@]2(C)[C@H]3C(=O)C=C4[C@@H]5C[C@@](C)(C(=O)O)CC[C@]5(C)CC[C@@]4(C)[C@]3(C)CC[C@@H]12 [Ammonium Glycyrrhizinate]	0.94	0.86	0.99	0.83	1.02	0.93
CCCC(CCC)C(=O)O [Valproic acid sodium salt (Sodium valproate)]	1.43	1.03	1.1	0.8	0.81	0.91
CNC(=O)c1ccc(N2C(=S)N(c3ccc(C#N)c(C(F)(F)F)c3)C(=O)C2(C)C)cc1F [Enzalutamide (MDV3100)]	0.95	0.44	0.53	0.59	0.83	0.71
CC(C)(CO)[C@@H](O)C(=O)NCCCO [D-Panthenol]	0.9	0.88	1.01	1.06	0.69	0.97
CN(C)/N=N/c1[nH]cnc1C(N)=O [Dacarbazine]	1.23	-0.01	0.65	0.83	0.82	1.08
COC(c1ccccc1)(c1ccccc1)[C@H](Oc1nc(C)cc(C)n1)C(=O)O [Ambrisentan]	0.82	1.01	1.04	1.15	0.7	0.76

Rewritten with bars between the fields: entries from further up.
Structure (SMILES) | growth ([1]; 1 µM) | growth ([1]; 10 µM) | growth ([2]; 1 µM) | growth ([2]; 10 µM) | growth ([3]; 1 µM) | growth ([3]; 10 µM)
Cc1c(C)c2c(c(C)c1O)CC[C@@](C)(CCC[C@H](C)CCC[C@H](C)CCCC(C)C)O2 [Vitamin E] | 1.25 | 0.92 | 0.9 | 0.77 | 0.78 | 0.77
CCCC(CCC)C(=O)O [Valproic acid sodium salt (Sodium valproate)] | 1.43 | 1.03 | 1.1 | 0.8 | 0.81 | 0.91

Following part

Structure (SMILES)	growth ([1]; 1 µM)	growth ([1]; 10 µM)	growth ([2]; 1 µM)	growth ([2]; 10 µM)	growth ([3]; 1 µM)	growth ([3]; 10 µM)
NCC[C@H](O)C(=O)N[C@@H]1C[C@H](N)[C@@H](O[C@H]2O[C@H](CN)[C@@H](O)[C@H](O)[C@H]2O)[C@H](O)[C@H]1O[C@H]1O[C@H](CO)[C@@H](O)[C@H](N)[C@H]1O [Amikacin disulfate]	1.41	1.25	1.26	1.13	1.12	1.21
COC1=CC(=O)C[C@@H](C)[C@]12Oc1c(Cl)c(OC)cc(OC)c1C2=O [Griseofulvin]	0.86	1.01	1.22	1.29	1.21	1.09
CCN(c1cc(-c2ccc(CN3CCOCC3)cc2)cc(C(=O)NCc2c(C)cc(C)[nH]c2=O)c1C)C1CCOCC1 [Tazemetostat (EPZ-6438)]	1.18	1.38	1.31	1.22	0.95	1.43
CCc1c2c(nc3ccc(OC(=O)N4CCC(N5CCCCC5)CC4)cc13)-c1cc3c(c(=O)n1C2)COC(=O)[C@]3(O)CC [Irinotecan HCl Trihydrate]	0.92	0.84	0.95	1.21	0.72	0.68
NC(=O)c1cccnc1 [Nicotinamide (Vitamin B3)]	1.12	1.27	1.11	1.39	1.38	1.36
NCCS(=O)(=O)O [Taurine]	1.58	1.33	1.2	1.33	1.15	1.2
O=C(O)Cc1ccccc1Nc1c(Cl)cccc1Cl [Diclofenac Sodium]	0.79	0.69	0.84	0.78	0.89	1.02
CCCCC1C(=O)N(c2ccccc2)N(c2ccccc2)C1=O [Phenylbutazone]	0.78	0.88	1.21	0.94	0.98	1.01
OC[C@@H](O)CN1CCN(c2ccccc2)CC1 [Levodropropizine]	0.75	0.87	0.8	0.95	0.88	0.85
CN(C)CCCN1c2ccccc2CCc2ccc(Cl)cc21 [Clomipramine HCl]	0.73	0.77	0.68	0.76	1.15	0.86
N=C(N)Nc1ccc(C(=O)Oc2ccc3cc(C(=N)N)ccc3c2)cc1 [Nafamostat Mesylate]	1.34	0.8	1	1.2	1.1	0.9
C[N+](C)(C)C[C@H](O)CC(=O)[O-] [L-carnitine]	0.93	0.99	0.91	0.67	0.63	0.79
CNCc1cc(-c2ccccc2F)n(S(=O)(=O)c2cccnc2)c1 [Vonoprazan Fumarate (TAK-438)]	0.84	0.86	0.94	1	0.92	1.14
CC1=NN(c2ccc(C)c(C)c2)C(=O)/C1=N\Nc1cccc(-c2cccc(C(=O)O)c2)c1O [Eltrombopag Olamine]	0.76	0.8	0.73	1.05	0.96	0.8
C[N+](C)(C)CCCCCC[N+](C)(C)C [Hexamethonium Dibromide]	0.58	0.67	0.52	0.93	0.66	0.72
CCCCCCc1ccc(O)cc1O [Hexylresorcinol]	1.2	1.28	1.1	1.22	1.05	1.09
CCn1c(=O)c2c(nc(/C=C/c3ccc(OC)c(OC)c3)n2C)n(CC)c1=O [Istradefylline]	0.75	0.99	0.73	1.12	0.71	0.72
CC(C)(C(=O)O)c1ccc(C(O)CCCN2CCC(C(O)(c3ccccc3)c3ccccc3)CC2)cc1 (stereo not given) [Fexofenadine HCl]	0.9	0.86	0.57	0.68	0.83	0.87
CCOc1ccc(C[C@H]2NC(=O)CCSSC[C@@H](C(=O)N3CCC[C@H]3C(=O)N[C@@H](CCCN)C(=O)NCC(N)=O)NC(=O)[C@H](CC(N)=O)NC(=O)[C@H]([C@@H](C)O)NC(=O)[C@H]([C@@H](C)CC)NC2=O)cc1 [Atosiban Acetate]	0.52	0.47	0.48	0.83	0.69	0.63
C=C[C@]1(C)C[C@@H](OC(=O)CSC(C)(C)CNC(=O)[C@H](N)C(C)C)[C@]2(C)[C@H](C)CC[C@]3(CCC(=O)[C@H]32)[C@@H](C)[C@@H]1O [Valnemulin HCl]	1.04	1.08	1.14	1.25	1.32	1.29

From the supplement of paper PMC10470496
